Literature values in US8440245B2, “Methods for making nutritional compositions comprising curcuminoids” (priority 2009, dated 2013).
At least one compound was matched to its structure with a doubt left.

Key:
[1] = 424 nm
microtubule assembly = details: @ 30 μm

COc1cc(/C=C/C(O)=C/C(=O)/C=C/c2ccc(O)cc2)ccc1O [DMC, demethoxycurcumin]
Color (molar absorptivity) [1]: 54,800 | Inhibition of Microtubule Assembly (microtubule assembly): 40% @ | Uptake by Colon Cancer Cells, relative to curcumin = 1.00 (colon cancer cells): 1.30
